# Assay results: patent US20060188913A1, “Methods and products for enhancing immune responses using imidazoquinoline compounds” (University of Iowa Research Foundation, priority 2001, published 2006)
# By UniProt entry, the sequences of proteins in these tests, tags left out. Residues count along the entry.
# UniProt O60603, 21-784: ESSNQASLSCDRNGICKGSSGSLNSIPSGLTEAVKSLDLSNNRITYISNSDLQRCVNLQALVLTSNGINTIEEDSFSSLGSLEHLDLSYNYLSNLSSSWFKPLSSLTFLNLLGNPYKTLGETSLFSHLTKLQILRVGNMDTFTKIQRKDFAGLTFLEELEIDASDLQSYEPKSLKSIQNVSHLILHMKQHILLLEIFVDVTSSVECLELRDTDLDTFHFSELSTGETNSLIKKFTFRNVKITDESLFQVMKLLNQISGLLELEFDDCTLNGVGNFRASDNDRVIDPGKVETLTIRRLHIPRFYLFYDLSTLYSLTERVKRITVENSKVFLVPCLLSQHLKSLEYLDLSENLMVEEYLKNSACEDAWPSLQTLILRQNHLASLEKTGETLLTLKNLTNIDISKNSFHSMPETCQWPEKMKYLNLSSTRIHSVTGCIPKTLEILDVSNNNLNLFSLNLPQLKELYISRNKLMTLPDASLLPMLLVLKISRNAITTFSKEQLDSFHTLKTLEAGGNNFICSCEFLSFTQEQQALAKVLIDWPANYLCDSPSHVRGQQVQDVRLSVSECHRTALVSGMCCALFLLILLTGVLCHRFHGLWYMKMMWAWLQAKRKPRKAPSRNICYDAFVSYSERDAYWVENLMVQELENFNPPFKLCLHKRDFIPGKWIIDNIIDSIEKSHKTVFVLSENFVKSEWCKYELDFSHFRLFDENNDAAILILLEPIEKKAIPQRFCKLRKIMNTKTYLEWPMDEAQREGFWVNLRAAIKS
# Entries after “also recorded” stand apart in the source; their conditions may differ. At least one structure is not confirmed: it was looked up by name or label, or the drawing left a doubt.
# Columns and labels:
# Type in all cases: cell-based
# hTLR2 = target: T1, hTLR2 (Homo sapiens, UniProt O60603); assay: NF-kappa B luciferase activation in 293T cells transfected with hTLR2
# T1 construct: plasmids (pcDNA3.1 constructs) coding for full length hTLR2, hTLR7, hTLR8 and hTLR9; expressed in transfected cells; host or cells: 293T cells carrying an NF-kappa B-luciferase reporter
# Experimental: (§1) Cells used for transfections were 293T (human embryo kidney cells, T-antigen transfected) or 293-TLR9-Luc (stable transfectants, human embryo kidney cells expressing the human TLR9 receptor and containing a genomic NF-kappa B-luciferase cassette).
# (§2) Transfections were performed in six-well plates. Cells were plated the day before transfection at 4×10^5/well in DMEM+10% FCS.
# (§3) Constructs: TLR cDNAs were cloned into pcDNA3.1. NF-kappa B activation was measured by using an 5× NF-kappa B-Luciferase construct (Stratagene). Transfection efficiency was determined by using a beta-galactosidase (beta-gal) reporter construct (p beta-Gal-Control, Clontech).
# (§4) Stimulation was performed 24 h after transfection. Medium of the cells was reduced to 1 ml (without medium change) and cells were stimulated with indicated amounts of R-848, LPS, ODN 8954, 2006 and IL-1 beta for 16 h.
# (§5) Cell extracts were prepared by lysing the cells in 100 μl reporter lysis buffer using the freeze-thaw method. NF-kappa B stimulation was measured through luciferase activity (Promega). All data were normalized for beta-gal expression. Stimulation indices were calculated in reference to luciferase activity of medium without addition of ODN.
# 293T cells, stably transfected with a NF-kappa B-luciferase reporter construct, were transiently transfected with plasmids (pcDNA3.1 constructs) coding for full length hTLR2, hTLR7, hTLR8 and hTLR9. […]
# hTLR8 [1] = target: T2, hTLR8 (Homo sapiens, UniProt Q9NR97); assay: NF-kappa B luciferase activation in 293T cells transiently transfected with hTLR8
# T2 construct: plasmids (pcDNA3.1 constructs) coding for full length hTLR2, hTLR7, hTLR8 and hTLR9; expressed in transfected cells; host or cells: 293T cells
# T2 sequence (Q9NR97 27-1041): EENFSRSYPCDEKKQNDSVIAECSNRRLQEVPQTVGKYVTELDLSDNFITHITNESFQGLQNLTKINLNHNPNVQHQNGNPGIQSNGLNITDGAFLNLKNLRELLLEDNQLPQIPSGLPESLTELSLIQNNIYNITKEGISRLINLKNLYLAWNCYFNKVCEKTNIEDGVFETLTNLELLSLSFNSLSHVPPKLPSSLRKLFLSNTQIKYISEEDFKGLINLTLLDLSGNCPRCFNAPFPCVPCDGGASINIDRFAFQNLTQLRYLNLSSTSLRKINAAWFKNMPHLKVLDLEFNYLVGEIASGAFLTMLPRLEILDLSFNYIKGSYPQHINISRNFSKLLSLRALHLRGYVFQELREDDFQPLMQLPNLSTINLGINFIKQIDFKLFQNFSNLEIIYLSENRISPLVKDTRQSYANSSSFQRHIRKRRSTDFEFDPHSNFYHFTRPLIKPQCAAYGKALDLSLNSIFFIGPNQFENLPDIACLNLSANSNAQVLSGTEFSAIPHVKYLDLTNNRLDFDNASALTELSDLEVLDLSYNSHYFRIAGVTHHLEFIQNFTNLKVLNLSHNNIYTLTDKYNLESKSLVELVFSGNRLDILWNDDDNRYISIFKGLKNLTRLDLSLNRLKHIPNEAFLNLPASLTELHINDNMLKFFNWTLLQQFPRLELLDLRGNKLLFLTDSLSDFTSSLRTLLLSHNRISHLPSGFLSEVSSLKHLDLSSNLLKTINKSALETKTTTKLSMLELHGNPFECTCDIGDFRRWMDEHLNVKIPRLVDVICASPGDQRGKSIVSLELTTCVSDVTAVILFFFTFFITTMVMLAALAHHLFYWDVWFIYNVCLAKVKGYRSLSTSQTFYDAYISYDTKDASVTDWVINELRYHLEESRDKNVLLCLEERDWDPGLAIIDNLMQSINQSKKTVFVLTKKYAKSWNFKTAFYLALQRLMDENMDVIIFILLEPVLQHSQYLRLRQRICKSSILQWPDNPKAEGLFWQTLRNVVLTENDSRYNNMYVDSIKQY
# Experimental: as §1, §2, §3, §4, §5
# 293T cells, stably transfected with a NF-kappa B-luciferase reporter construct, were transiently transfected with plasmids (pcDNA3.1 constructs) coding for full length hTLR2, hTLR7, hTLR8 and hTLR9. All transfections were normalized to beta-galactosidase activity. Twenty-four hours following transfection, cells were stimulated with R-848, LPS, CpG ODN 8954 (5′ […] 3′, SEQ ID NO:4), CpG ODN 2006, or IL-1 and then assayed for luciferase activity 16 h after stimulation. Each experiment was done at least twice with similar results.
# hTLR8 [2] = target: T2, hTLR8; assay: IL-8 production (ELISA) in hTLR8-transfected 293T cells
# human PBMC [3] = assay: TNF-alpha secretion by human PBMC (ELISA); conditions: 48 hours, R-848 0.01-1.0 μg/ml versus CpG ODN, FIG. 7A
# human PBMC [4] = assay: IL-10 secretion by human PBMC (ELISA); conditions: 48 hours, R-848 0.01-1.0 μg/ml versus CpG ODN 2006 0.4-4.8 μg/ml, FIG. 8A
# human PBMC [5] = assay: IL-6 secretion by human PBMC (ELISA), with or without chloroquine
# Experimental: Vasilakos J P et al. (2000) Cell Immunol 204:64-74. Human PBMC (n=3) were cultured for 24 h with varying concentrations of R-848 ([…]), varying concentrations of CpG ODN 2006 (0.8-6.0 μg/ml), SEB (50 ng/ml), or media alone. […] IL-6 in the supernatants was measured by ELISA. […] TLR9 is believed to have intracellular expression only.
smiles,measurement,setting,value
"CCOCc1nc2c(N)nc3ccccc3c2n1CC(C)(C)O [R-848, Resiquimod]",NF-kappa B activation through hTLR2 (in words),hTLR2,neither of these showed any response to R-848
same,NF-kappa B-dependent transcription of the luciferase reporter gene,"hTLR8 [1]; FIG. 2A, stimulated 24 h after transfection, assayed 16 h later, TLR not given, hTLR8 by context",2.5- to 4.5 fold
same,increase in stimulation (hTLR8-mediated NF-kappa B activation),"hTLR8 [1]; FIG. 2B, 1 to 10 jig/ml R-848",1.8- to 4.7 fold
same,NF-kappa B activation through hTLR8 (in words),hTLR8 [1]; hTLR8-transfected 293T cells,activated NF-kappa B signaling in response to R-848
same,IL-8 in the supernatants,"hTLR8 [2]; 10 μg/ml R-848, 16 h after stimulation",greater than 1600 μg/ml
same,IL-8 production (in words),hTLR8 [2]; 293T cells expressing hTLR8,produced IL-8 in response to R-848
same,TNF-alpha induction,human PBMC [3],substantially more; also recorded: much more potent than any CpG ODN in inducing very high amounts of TNF-alpha
same,IL-10 induction,human PBMC [4],induced higher amounts of IL-10 than CpG ODN 2006
same,inhibition of the stimulant's activity by chloroquine (in words),"human PBMC [5]; 10 μg/ml chloroquine, 24 h, IL-6, FIG. 9",dampen but not abolish; also recorded: can be strongly but not fully inhibited by chloroquine
same,IL-6 induction,"human PBMC [5]; 48 hours, R-848 versus CpG ODN, FIG. 9",substantially more; also recorded: high amounts of IL-6
